Data source: PubChem BioAssay AID686943 (Drosophila RNAi Screening Center, 2013)

Purpose: 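Fly genes whose loss alters ERK activation after insulin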 (primary screen)
Cell system: Drosophila S2R+ haemocyte-like cells expressing YFP-tagged ERK (Rolled)
Knock-down reagent: long dsRNA against Drosophila genes
Treatment: insulin stimulation versus unstimulated cells; dose and duration not given
Measured: 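Per-plate z-scores of phospho-ERK immunostaining normalised to YFP-tagged ERK, measured with and without insulin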
Direction: replicate 1, z-score of dpERK with insulin and replicate 2, z-score of dpERK with insulin: higher = more active ERK per ERK-YFP after insulin; replicate 1, z-score of dpERK under basal conditions: higher = more basal active ERK per ERK-YFP; replicate 1, z-score of ERK-YFP with insulin: higher = more YFP-tagged ERK signal
The deposit covers about 23,000 reagents; shown is a random part of those that have a named target and a result. 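Extra replicates exist only for a retested subset of genes; insulin dose and duration not given; both raised and lowered dpERK matter.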 The numbers tell different reagents against one gene apart. A plus sign joins genes that one reagent is predicted to hit. Not given: the amount of reagent, the time to read-out.

target gene | reagent no. | replicate 1, z-score of dpERK with insulin | replicate 2, z-score of dpERK with insulin | replicate 1, z-score of dpERK under basal conditions | replicate 1, z-score of ERK-YFP with insulin
CG12520 | 1 | 0.32 | 0.39 | -0.07 | 0.46
Vps52 (Vacuolar protein sorting 52) | 1 | 0.63 | 0.4 | 0.99 | 0.12
Menl-2 + Menl-1 | 1 | 1.36 | 0.35 | 1.03 | -0.25
Menl-2 + Menl-1 | 2 | 0.94 | 0.06 | 3.04 | -1.23
CG12836 | 1 | 0.14 | 1.01 | -0.07 | 0.01
CG7739 | 1 | -0.4 | -0.47 | 0.06 | 0.26
Tsp26A (Tetraspanin 26A) | 1 | 1.2 | 0.27 | -0.72 | 0.96
BubR1 (Bub1-related kinase) | 1 | -0.88 | 1.3 | -0.71 | 0.16
Rgl (Ral guanine nucleotide dissociation stimulator-like) | 1 | 2.09 | -0.32 | 0.43 | -0.86
Gr23a (Gustatory receptor 23a) | 1 | -0.22 | -0.2 | -0.88 | 0.98
Sdc (Syndecan) | 1 | 0.41 | 0.54 | 0.53 | -2.45
pwn (pawn) | 1 | -0.19 | 0.33 | -0.08 | 0.45
slow (slowdown) | 1 | 0.34 | -0.27 | 0.06 | -0.01
slow (slowdown) | 2 | 0.73 | -0.46 | -0.61 | 0.66
CG7692 | 1 | 0.25 | 1.42 | -1.33 | 0.86
CG30479 | 1 | -0.67 | -0.8 | -1.04 | 0.82
Mov10 (Mov10 RISC complex RNA helicase) | 1 | -1.73 | -0.21 | -0.93 | 0.65
CG4291 | 1 | -0.8 | -1.48 | 0.19 | 0.33
Oseg6 (Outer segment 6) | 1 | -0.29 | -0.02 | -0.63 | 0.14
Ugt303B3 (UDP-glycosyltransferase family 303 member B3) | 1 | -0.99 | -0.2 | -1.21 | 0.69
CG6329 | 1 | 0.78 | 0.34 | 0.68 | 0.64
CG30273 | 1 | 1.94 | 1.75 | -0.4 | 0.35
CG9084 | 1 | -0.56 | -0.25 | 0.03 | -0.73
CG34451 | 1 | -1.6 | -1.38 | -2.54 | -0.22
CG34451 | 2 | 0.76 | 0.08 | -0.48 | -0.61
CG8635 | 1 | 0.08 | 0.05 | -0.62 | -0.1
CG3880 | 1 | 0.36 | 0.52 | 1.03 | 0.56
CG3880 | 2 | -2.43 | -0.19 | -1.39 | -0.44
tal-1A + tal-2A + tal-AA + 1 more | 1 | -0.06 | 0.64 | 0.67 | -0.04
ItgaPS5 (Integrin alphaPS5 subunit) | 1 | 0.01 | -0.92 | 0.56 | -0.21
vir-1 (virus-induced RNA 1) | 1 | -0.12 | 0.08 | 0.17 | -0.3
vir-1 (virus-induced RNA 1) | 2 | -0.23 | 0.71 | -0.28 | -3.63
ct (cut) | 1 | -0.17 | -0.08 | -2.33 | -0.41
CG3770 | 1 | -0.09 | -0.6 | 0.78 | -0.77
CG8945 | 1 | -0.33 | -0.8 | -0.4 | 0.03
CG8945 | 2 | -0.45 | -0.06 | 0.41 | 1.06
ATPsynE (ATP synthase, subunit E) | 1 | 0.38 | 0.8 | -0.17 | -0.09
Nelf-A (Negative elongation factor A) | 1 | 0 | 0.86 | -0.27 | 0.53
CG43125 | 1 | -0.28 | -0.43 | 0.51 | -0.07
CG5846 | 1 | 0.07 | -0.02 | -0.04 | -0.44
CG10417 | 1 | 0.3 | 0.57 | 1.7 | -0.23
CR18228 (pseudo) | 1 | -0.88 | -0.21 | 1.8 | 0.28
mts (microtubule star) | 1 | -2.75 | -4.06 | 0.66 | -0.64
CG33768 | 1 | 1.5 | 0.26 | 1.55 | -1.5
vis + achi | 1 | 1.19 | 1.78 | 0.53 | -0.17
CG11068 | 1 | -0.35 | -0.44 | 0.14 | 0.87
CG9399 | 1 | 0.08 | -0.2 | 1.42 | -2.33
CYLD (Cylindromatosis) | 1 | -0.88 | 0.47 | -0.99 | 0.89
CG6836 | 1 | -0.07 | -0.63 | -0.01 | 0.15
CG16837 | 1 | -0.28 | 0.26 | -0.01 | 0.13
PolZ2 (DNA polymerase zeta subunit 2) | 1 | 0.15 | -0.35 | -0.51 | 0.23
CR31292 (pseudo) | 1 | 0.42 | -0.19 | -1.12 | 0.45
CG9184 | 1 | 0.47 | 0.34 | 1.98 | 0.3
CG9184 | 2 | 0.04 | -0.5 | 0.63 | 0.21
CG7208 | 1 | -0.14 | 0.26 | 0.75 | 0.09
ss (spineless) | 1 | 0.6 | 0.17 | -0.46 | -0.36
Tim9a | 1 | -0.24 | -0.31 | -0.6 | 0.53

Part of the list above, reformatted:
{"target gene":"CG34451","reagent no.":1,"replicate 1, z-score of dpERK with insulin":-1.6,"replicate 2, z-score of dpERK with insulin":-1.38,"replicate 1, z-score of dpERK under basal conditions":-2.54,"replicate 1, z-score of ERK-YFP with insulin":-0.22}
{"target gene":"CG34451","reagent no.":2,"replicate 1, z-score of dpERK with insulin":0.76,"replicate 2, z-score of dpERK with insulin":0.08,"replicate 1, z-score of dpERK under basal conditions":-0.48,"replicate 1, z-score of ERK-YFP with insulin":-0.61}
{"target gene":"CG8635","reagent no.":1,"replicate 1, z-score of dpERK with insulin":0.08,"replicate 2, z-score of dpERK with insulin":0.05,"replicate 1, z-score of dpERK under basal conditions":-0.62,"replicate 1, z-score of ERK-YFP with insulin":-0.1}
{"target gene":"CG3880","reagent no.":1,"replicate 1, z-score of dpERK with insulin":0.36,"replicate 2, z-score of dpERK with insulin":0.52,"replicate 1, z-score of dpERK under basal conditions":1.03,"replicate 1, z-score of ERK-YFP with insulin":0.56}
{"target gene":"CG3880","reagent no.":2,"replicate 1, z-score of dpERK with insulin":-2.43,"replicate 2, z-score of dpERK with insulin":-0.19,"replicate 1, z-score of dpERK under basal conditions":-1.39,"replicate 1, z-score of ERK-YFP with insulin":-0.44}
{"target gene":"tal-1A + tal-2A + tal-AA + 1 more","reagent no.":1,"replicate 1, z-score of dpERK with insulin":-0.06,"replicate 2, z-score of dpERK with insulin":0.64,"replicate 1, z-score of dpERK under basal conditions":0.67,"replicate 1, z-score of ERK-YFP with insulin":-0.04}
{"target gene":"ItgaPS5 (Integrin alphaPS5 subunit)","reagent no.":1,"replicate 1, z-score of dpERK with insulin":0.01,"replicate 2, z-score of dpERK with insulin":-0.92,"replicate 1, z-score of dpERK under basal conditions":0.56,"replicate 1, z-score of ERK-YFP with insulin":-0.21}
{"target gene":"vir-1 (virus-induced RNA 1)","reagent no.":1,"replicate 1, z-score of dpERK with insulin":-0.12,"replicate 2, z-score of dpERK with insulin":0.08,"replicate 1, z-score of dpERK under basal conditions":0.17,"replicate 1, z-score of ERK-YFP with insulin":-0.3}
{"target gene":"vir-1 (virus-induced RNA 1)","reagent no.":2,"replicate 1, z-score of dpERK with insulin":-0.23,"replicate 2, z-score of dpERK with insulin":0.71,"replicate 1, z-score of dpERK under basal conditions":-0.28,"replicate 1, z-score of ERK-YFP with insulin":-3.63}
